{"sequences": {"note": "Chains of the proteins cited; added tags and fusions are not shown.", "UniProt P67809": "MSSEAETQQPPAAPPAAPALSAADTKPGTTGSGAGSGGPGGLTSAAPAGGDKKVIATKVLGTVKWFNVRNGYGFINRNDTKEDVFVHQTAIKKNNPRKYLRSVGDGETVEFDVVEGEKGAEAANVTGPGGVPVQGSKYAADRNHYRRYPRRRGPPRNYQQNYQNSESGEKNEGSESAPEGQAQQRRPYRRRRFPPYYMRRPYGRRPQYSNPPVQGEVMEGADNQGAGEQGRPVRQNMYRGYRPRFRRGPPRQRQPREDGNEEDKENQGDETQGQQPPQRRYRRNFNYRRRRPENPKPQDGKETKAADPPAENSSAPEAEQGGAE", "UniProt P11940": "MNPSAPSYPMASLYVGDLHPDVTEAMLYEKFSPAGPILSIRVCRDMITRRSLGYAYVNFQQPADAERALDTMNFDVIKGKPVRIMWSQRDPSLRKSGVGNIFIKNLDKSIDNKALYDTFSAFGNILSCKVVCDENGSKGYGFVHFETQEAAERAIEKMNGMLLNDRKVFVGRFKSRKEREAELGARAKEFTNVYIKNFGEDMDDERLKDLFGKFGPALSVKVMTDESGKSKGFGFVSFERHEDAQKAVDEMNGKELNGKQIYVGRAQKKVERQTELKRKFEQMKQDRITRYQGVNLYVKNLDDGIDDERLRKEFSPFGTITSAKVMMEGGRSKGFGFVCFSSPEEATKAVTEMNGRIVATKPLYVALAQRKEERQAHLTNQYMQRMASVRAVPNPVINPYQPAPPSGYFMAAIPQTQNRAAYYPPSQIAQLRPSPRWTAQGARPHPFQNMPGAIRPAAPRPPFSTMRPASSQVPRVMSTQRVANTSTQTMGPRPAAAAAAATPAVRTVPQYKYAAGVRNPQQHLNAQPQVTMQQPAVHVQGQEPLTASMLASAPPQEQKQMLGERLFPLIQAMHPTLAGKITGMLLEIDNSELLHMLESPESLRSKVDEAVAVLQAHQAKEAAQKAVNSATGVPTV"}, "source": "paper doi:10.1101/558098", "target": "mCherry-tagged YBX1 (human) (UniProt P67809)", "assay": "fluorescence cross-correlation spectroscopy", "note": "These are yes or no findings as the source states them, for the method shown. Some results given as binding are weak or reduced against the parent protein; the word gives no strength.", "data": [{"substance": "PABPC1-GFP (poly(A) binding protein C1 with C-terminal GFP) (from UniProt P11940 1-636)", "values": [{"measurement": "binding", "result": "binds"}]}]}
